We go through 1 molecule from patent publication US20110294740A1.

By UniProt entry, the sequences of proteins in these tests, tags left out. Residues count along the entry.
UniProt P05067, residues 672-713: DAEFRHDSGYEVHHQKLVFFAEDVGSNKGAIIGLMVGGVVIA

This assay addresses wild-type Aβ42 peptide (UniProt P05067). As to the kind of experiment: SPR. (Surface plasmon resonance follows binding to a sensor surface in real time, without labels.)

Results are given in words; binding and its absence hold for the method and conditions named. Some results given as binding are weak or reduced against the parent protein; the word gives no strength. Where a sequence is shown, tags or fusion partners need not be part of it.

B1: MBP1 (first 64 residues of MBP) (peptide)
chain: MASQKRPSQRHGSKYLATASTMDHARHGFLRPHRDTGILDSIGRFFGGDRGAPKRGSGKDSHHP
Turning to B1, the binding result was “binds”.
